PubChem BioAssay AID1224826, NIAID | 2016

Screen: 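Knock-downs that raise or lower Tnf reporter signal after endotoxin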 (primary screen)
Cell system: RAW264.7 G9 macrophages from mouse bearing reporters for p65 (GFP) and the Tnf promoter (mCherry)
Knock-down reagent: siRNA pool against mouse genes, 100 nM
Duration: 16 h of LPS stimulation, after 2 days of siRNA transfection
Conditions: bacterial lipopolysaccharide (Salmonella minnesota R595), 10 ng/ml
Read-out: 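Nuclear mCherry signal of the Tnf promoter reporter measured by imaging after background removal, scaled to each plate median and turned into robust z-scores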
Direction: Tnf reporter robust z-score: higher = stronger Tnf promoter reporter signal after LPS
Active means: 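Called active when robust z-score is at most -1.3, matching the median of the Tlr4 knock-down control, or over 3; control wells and wells with under 50 cells never active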
Calls: active = Tnf reporter clearly lowered or raised; inactive = no clear change in Tnf reporter
This is one part, drawn at random, of about 17,000 deposited reagents. In the full data, about 1,110 (6.6%) are marked active. 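Active means lowered or raised reporter signal; replicate intensities are raw and not normalised per plate.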 Unmarked entries are inactive. Not all columns of the deposit are shown.

With knock-down of Map10, the record shows Tnf reporter robust z-score -0.28; fewer than 50 cells in well enough cells in well.
Silencing of Gtf2f1 gave: Tnf reporter robust z-score -1.34 (active); fewer than 50 cells in well enough cells in well.
Cchcr1 gave Tnf reporter robust z-score -0.04; fewer than 50 cells in well enough cells in well.
With knock-down of Pcgf2 the results were Tnf reporter robust z-score -0.41; fewer than 50 cells in well enough cells in well.
For Sf3a1, the values are Tnf reporter robust z-score -1.53 (active); fewer than 50 cells in well enough cells in well.
Depletion of Glt8d1 gave: fewer than 50 cells in well fewer than 50 cells per well; well left out of calls.
Depletion of Gng3 gave: Tnf reporter robust z-score -0.37; fewer than 50 cells in well enough cells in well.
Against Gm9732, the values are fewer than 50 cells in well fewer than 50 cells per well; well left out of calls.
Hebp1 gave Tnf reporter robust z-score -0.61; fewer than 50 cells in well enough cells in well.
Lgi3 showed Tnf reporter robust z-score 1.82; fewer than 50 cells in well enough cells in well.
After knock-down of Veph1, the screen gave fewer than 50 cells in well fewer than 50 cells per well; well left out of calls.
Against Grhl2, the entry reads Tnf reporter robust z-score 0.81; fewer than 50 cells in well enough cells in well.

2 entries from above in another layout.
| target gene | Tnf reporter robust z-score | fewer than 50 cells in well |
| --- | --- | --- |
| Pcgf2 | -0.41 | enough cells in well |
| Sf3a1 | -1.53 (active) | enough cells in well |
